Measurements as given in patent US9603896B2, “Peptide compounds and methods of production and use thereof” (priority 2012, dated 2017).
Read-outs that look alike come from different tables or passages of the source. Part of at least one peptide drawing is inferred or uncertain, most often the ends. Some of these results come from one statement about several compounds together. For part of these data: At least one compound was matched to its structure with a doubt left. Ends that are not written are not given here.

Tests used:
[1] = system: Pseudomonas aeruginosa ATCC® 27853™; format: cell-based; details: for reduction of CFU (FIG. 14) / reduction of CFU/ml: pH 5.5, 180 minutes; for reduction of CFU (FIG. 14): highest concentrations (150 μg/ml); for reduction of CFU/ml: highest concentrations of peptides (25 μM), gentamicin 4 μg/ml; for Effects of Peptide Compounds on Pseudomonas aeruginosa ATCC ® 27853 ™: Table 6, 5 × 10^3 CFU/ml unless italicized = 1 × 10^5 CFU/ml
Method: (§1) The three peptide compounds BCC01-5RMP (SEQ ID NO:21), BCC02-5RMP (SEQ ID NO:22), and BCC03-5RMP (SEQ ID NO:23) were assayed for in vitro bactericidal activity against Pseudomonas aeruginosa, Escherichia coli, Salmonella typhimurium, and Acinetobacter baumannii. […] The CFU remaining at the end of 60 to 180 minute incubation was determined, and the data plotted as a log reduction in CFU/ml.
(§2) Tables 4-6 show the results of various peptides and peptide compounds against P. aeruginosa and E. coli strains. Tables 4 and 5 show the results of an investigation of the effects of peptide or peptide compounds BCC03-5RMP (SEQ ID NO:23), BCC03-MP (SEQ ID NO:24) and BCC03-5R (SEQ ID NO:20) against P. aeruginosa ATCC® strain 27853™ and E. coli ATCC® strain 25922™ (American Type Culture Collection, Manassas, Va.). […] Table 6 compares the activity of several other compounds, including the “5R” versions of BCC01, i.e., SEQ ID NO:18 (which comprises SEQ ID NO:1 with five additional arginines), the “5R” version of BCC02 (i.e., SEQ ID NO:19, which comprises SEQ ID NO:2 with five additional arginines), and BCC03-5RMP (SEQ ID NO:23), and BCC03-MP (SEQ ID NO:24, i.e., without the five additional R residues). The data generally indicate the superiority of BCC03-5RMP (SEQ ID NO:23) against E. coli, and the superiority of the 5R or 5RMP versions of the peptide over the “AEEA only” peptide against P. aeruginosa.
For FIGS. 10-13, in vitro bactericidal assays were performed using a starting inoculum of 1×10^6 CFU/ml of the bacterial suspension. The CFU remaining at the end of the 60-180 minute incubation was determined, and the data was plotted as log reduction in CFU/ml.
In particular, each of the test peptides (CAP37 peptides 120-146WR, 120-146WH, and 95-122 (SEQ ID NOs: 30, 31, and 26, respectively)) was used at 25, 12.5, 6.25, and 3.12 μM. Gentamicin was used at 4 μg/ml. 1×10^6/ml Acinetobacter baumannii ATCC® BAA-747″ or Pseudomonas aeruginosa ATCC® 27853™ (American Type Culture Collection, Manassas, Va.) were incubated with the peptides, negative buffer control (tryptone saline), and positive control gentamicin at pH 5.5 or 7.2. A 60 minute incubation was used for Acinetobacter baumannii ATCC® BAA747™, while a 180 minute incubation was used for Pseudomonas aeruginosa ATCC® 27853™. 50 μl aliquots were plated out on agar plates and incubated overnight. Colony forming units were counted after overnight incubation and CFU/ml calculated.
For FIG. 14, 1×10^6/ml Pseudomonas aeruginosa ATCC® 27853™ were incubated with each of the test peptides (CAP37 peptides 120-146WR, 120-146WH, 120-146QR, 120-146QH, 120-146QR-5RMP, and 120-146QH-5RMP (SEQ ID NOs: 30, 31, 28, 29, 32, and 33, respectively)) at 150, 75, and 37.5 μg/ml, or negative buffer control (tryptone saline), for 180 minutes at pH 5.5. 50 μl aliquots were plated out on agar plates and incubated overnight. Colony forming units were counted after overnight incubation and CFU/ml calculated.

[2] = system: E. coli ATCC® strain 25922™; format: cell-based, Escherichia coli; parameters: unit not given here; details: Table 6, 5 × 10^3 CFU/ml unless italicized = 1 × 10^5 CFU/ml
Method: as §1, §2

GTRCQVAGWGSQHSGGRLSRFPRFVNV [Peptide 120-146QH]
reduction of CFU (FIG. 14) [1]: 1-2 logs

GTRCQVAGWGSQRSGGRLSRFPRFVNV [Peptide 120-146QR]
reduction of CFU (FIG. 14) [1]: 1-2 logs

GTRCQVAGWGSWHSGGRLSRFPRFVNV [Peptide 120-146WH]
reduction of CFU/ml [1]: 4-5 logs

GTRCQVAGWGSWRSGGRLSRFPRFVNV [Peptide 120-146WR]
reduction of CFU/ml [1]: 4-5 logs

RRRRNQGRHFSGGALIHARFVMTAASCFQR [Peptide 20-44ser26]
Effects of Peptide Compounds on Escherichia coli ATCC ® 25922 ™ ([2]; 6.25 μg/ml): 45.0 | Effects of Peptide Compounds on Escherichia coli ATCC ® 25922 ™ ([2]; 12.5 μg/ml): 54.3 | Effects of Peptide Compounds on Escherichia coli ATCC ® 25922 ™ ([2]; 25 μg/ml): 57.3 | Effects of Peptide Compounds on Escherichia coli ATCC ® 25922 ™ ([2]; 43.8 μg/ml, listed as SEQ ID NO: 19 Lot #027C09): 85.7 | Effects of Peptide Compounds on Escherichia coli ATCC ® 25922 ™ ([2]; 43.8 μg/ml, listed as SEQ ID NO: 19 Lot #028C09): 80.2 | Effects of Peptide Compounds on Escherichia coli ATCC ® 25922 ™ ([2]; 50 μg/ml): 67.9 | Effects of Peptide Compounds on Escherichia coli ATCC ® 25922 ™ ([2]; 87.6 μg/ml, listed as SEQ ID NO: 19 Lot #027C09): 89.6 | Effects of Peptide Compounds on Escherichia coli ATCC ® 25922 ™ ([2]; 87.6 μg/ml, listed as SEQ ID NO: 19 Lot #028C09): 84.7 | Effects of Peptide Compounds on Escherichia coli ATCC ® 25922 ™ ([2]; 100 μg/ml): 73.5 | Effects of Peptide Compounds on Escherichia coli ATCC ® 25922 ™ ([2]; 175.2 μg/ml, listed as SEQ ID NO: 19 Lot #027C09): 96.4 | Effects of Peptide Compounds on Escherichia coli ATCC ® 25922 ™ ([2]; 175.2 μg/ml, listed as SEQ ID NO: 19 Lot #028C09): 93.1 | Effects of Peptide Compounds on Escherichia coli ATCC ® 25922 ™ ([2]; 200 μg/ml): 90.6 | Effects of Peptide Compounds on Escherichia coli ATCC ® 25922 ™ ([2]; 262.8 μg/ml, listed as SEQ ID NO: 19 Lot #027C09): 99.5 | Effects of Peptide Compounds on Escherichia coli ATCC ® 25922 ™ ([2]; 262.8 μg/ml, listed as SEQ ID NO: 19 Lot #028C09): 98.8 | Effects of Peptide Compounds on Pseudomonas aeruginosa ATCC ® 27853 ™ ([1]; 0.137 μg/ml, listed as SEQ ID NO: 19 Lot #027C09): 33.8 | Effects of Peptide Compounds on Pseudomonas aeruginosa ATCC ® 27853 ™ ([1]; 0.137 μg/ml, listed as SEQ ID NO: 19 Lot #028C09): 24.9 | Effects of Peptide Compounds on Pseudomonas aeruginosa ATCC ® 27853 ™ ([1]; 0.5475 μg/ml, listed as SEQ ID NO: 19 Lot #027C09): 65.1 | Effects of Peptide Compounds on Pseudomonas aeruginosa ATCC ® 27853 ™ ([1]; 0.5475 μg/ml, listed as SEQ ID NO: 19 Lot #028C09): 75.6 | Effects of Peptide Compounds on Pseudomonas aeruginosa ATCC ® 27853 ™ ([1]; 2.19 μg/ml, listed as SEQ ID NO: 19 Lot #027C09): 77.1 | Effects of Peptide Compounds on Pseudomonas aeruginosa ATCC ® 27853 ™ ([1]; 2.19 μg/ml, listed as SEQ ID NO: 19 Lot #028C09): 87.0 | Effects of Peptide Compounds on Pseudomonas aeruginosa ATCC ® 27853 ™ ([1]; 6.25 μg/ml): 100.0 | Effects of Peptide Compounds on Pseudomonas aeruginosa ATCC ® 27853 ™ ([1]; 8.76 μg/ml, listed as SEQ ID NO: 19 Lot #027C09): 99.1 | Effects of Peptide Compounds on Pseudomonas aeruginosa ATCC ® 27853 ™ ([1]; 8.76 μg/ml, listed as SEQ ID NO: 19 Lot #028C09): 99.6 | Effects of Peptide Compounds on Pseudomonas aeruginosa ATCC ® 27853 ™ ([1]; 12.5 μg/ml): 100.0 | Effects of Peptide Compounds on Pseudomonas aeruginosa ATCC ® 27853 ™ ([1]; 25 μg/ml): 100.0 | Effects of Peptide Compounds on Pseudomonas aeruginosa ATCC ® 27853 ™ ([1]; 50 μg/ml): 100.0 | Effects of Peptide Compounds on Pseudomonas aeruginosa ATCC ® 27853 ™ ([1]; 87.6 μg/ml): 100.0 | Effects of Peptide Compounds on Pseudomonas aeruginosa ATCC ® 27853 ™ ([1]; 100 μg/ml): 100.0 | Effects of Peptide Compounds on Pseudomonas aeruginosa ATCC ® 27853 ™ ([1]; 200 μg/ml): 100.0
